For three molecules, binding results are on record in article PMC7463853.

In test [1] the target is T1, RFP-tagged MACC1 (Metastasis-Associated in Colon Cancer 1) (UniProt Q6ZN28).
T1 sequence: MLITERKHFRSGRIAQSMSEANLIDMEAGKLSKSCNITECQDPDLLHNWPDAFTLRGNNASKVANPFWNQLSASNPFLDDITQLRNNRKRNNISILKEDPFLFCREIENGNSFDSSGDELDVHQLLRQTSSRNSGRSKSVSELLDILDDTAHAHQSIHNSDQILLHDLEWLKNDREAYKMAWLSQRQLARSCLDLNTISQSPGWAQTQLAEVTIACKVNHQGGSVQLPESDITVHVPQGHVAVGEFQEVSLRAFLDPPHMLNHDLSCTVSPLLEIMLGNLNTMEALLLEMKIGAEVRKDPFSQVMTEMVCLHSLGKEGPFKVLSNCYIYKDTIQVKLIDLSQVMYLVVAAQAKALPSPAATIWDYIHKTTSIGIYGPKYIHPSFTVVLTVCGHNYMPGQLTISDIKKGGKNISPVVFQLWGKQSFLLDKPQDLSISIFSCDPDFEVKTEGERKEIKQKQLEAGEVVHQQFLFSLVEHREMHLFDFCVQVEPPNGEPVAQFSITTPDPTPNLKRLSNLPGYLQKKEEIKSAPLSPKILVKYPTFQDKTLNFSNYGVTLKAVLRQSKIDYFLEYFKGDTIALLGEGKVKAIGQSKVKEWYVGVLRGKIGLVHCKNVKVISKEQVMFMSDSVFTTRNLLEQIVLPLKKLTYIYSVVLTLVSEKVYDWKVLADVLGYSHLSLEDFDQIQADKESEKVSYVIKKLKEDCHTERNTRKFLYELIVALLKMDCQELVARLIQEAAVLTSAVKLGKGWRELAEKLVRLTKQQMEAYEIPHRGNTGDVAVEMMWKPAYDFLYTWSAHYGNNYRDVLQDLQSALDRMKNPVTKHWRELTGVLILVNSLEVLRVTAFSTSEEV
Put plainly: FRET or BRET; GFP- and RFP-tagged proteins overexpressed in HEK293T cells by lentiviral transfer; cells fixed with 4% paraformaldehyde; FRET efficacy scaled 0 to 1 (ImageJ plugin FRETTY).

For test [2], the target named is T1, RFP-tagged MACC1 (Metastasis-Associated in Colon Cancer 1). Kind of test: co-IP; HEK293T cells overexpressing MACC1-RFP and DCLK1-GFP; IP-lysis buffer with protease inhibitor; 2 µg of the respective antibody overnight at 4 °C, G-agarose beads 4 h at 4 °C; each protein in turn precipitated.
Test [3] addresses T2, MACC1, ectopically overexpressed in a CRC cell line (UniProt Q6ZN28).
T2 sequence: T1 sequence
Put plainly: co-IP; lysate of a CRC cell line with ectopic MACC1 overexpression; 2 µg of the respective antibody overnight at 4 °C, G-agarose beads 4 h at 4 °C.

For the next test, the target named is T3, GFP-tagged DCLK1 (UniProt O15075).
T3 sequence: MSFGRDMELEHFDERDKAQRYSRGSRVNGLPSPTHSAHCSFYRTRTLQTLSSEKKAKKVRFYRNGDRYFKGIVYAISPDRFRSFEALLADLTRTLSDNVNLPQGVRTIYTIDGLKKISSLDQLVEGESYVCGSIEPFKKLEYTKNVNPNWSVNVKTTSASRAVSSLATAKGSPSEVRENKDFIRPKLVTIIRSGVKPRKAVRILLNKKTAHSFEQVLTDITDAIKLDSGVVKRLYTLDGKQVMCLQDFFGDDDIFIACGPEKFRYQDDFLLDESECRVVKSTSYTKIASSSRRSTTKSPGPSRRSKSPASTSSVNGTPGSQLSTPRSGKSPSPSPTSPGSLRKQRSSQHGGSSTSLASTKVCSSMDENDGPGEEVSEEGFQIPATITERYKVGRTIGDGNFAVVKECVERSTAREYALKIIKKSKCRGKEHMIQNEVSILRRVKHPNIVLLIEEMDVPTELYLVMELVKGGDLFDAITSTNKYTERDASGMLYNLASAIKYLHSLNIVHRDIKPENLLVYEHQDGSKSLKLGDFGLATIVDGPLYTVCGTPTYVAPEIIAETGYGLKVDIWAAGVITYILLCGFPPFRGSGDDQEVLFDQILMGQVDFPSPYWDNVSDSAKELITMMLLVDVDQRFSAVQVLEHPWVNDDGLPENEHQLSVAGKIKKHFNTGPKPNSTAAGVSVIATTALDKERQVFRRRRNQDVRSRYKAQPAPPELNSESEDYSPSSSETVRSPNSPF
Kind of test: co-IP; HEK293T cells overexpressing MACC1-RFP and DCLK1-GFP; IP-lysis buffer with protease inhibitor; 2 µg of the respective antibody overnight at 4 °C, G-agarose beads 4 h at 4 °C; each protein in turn precipitated.

These are yes or no findings as the source states them, for the method shown. Binding seen in cells or lysates may run through a third protein. Some binding calls cover weakened binding; strength is not graded here. For some of these results: Where a sequence is shown, tags or fusion partners need not be part of it.

B1: GFP-tagged DCLK1 (protein, UniProt O15075 1-740)
chain: T3 sequence
With B1, the binding entry in test [1] and in test [2] was “binds” each time.

B2: DCLK1 in a CRC cell line with ectopic MACC1 overexpression (protein, UniProt O15075 1-740)
chain: T3 sequence
On to B2, for which the binding entry in test [3] is listed as “binds”.

B3: RFP-tagged MACC1 (Metastasis-Associated in Colon Cancer 1) (protein, UniProt Q6ZN28 1-852)
chain: T1 sequence
On to B3, for which the binding entry with GFP-tagged DCLK1 is given as “binds”.
